Measurements: the supplement of paper PMC11542785
Structures can show the parent of a compound that is named as a salt. Some of the results follow. Single values are uncertain, as repeats are few or missing.

System: Drosophila melanogaster DPAGT1 (Alg7) RNAi eye model
Assay: eye size Z-score vs DMSO-treated DPAGT1 model flies; higher = larger eye (suppression of DPAGT1 phenotype)
Conditions: 5 uM

Structure (SMILES) | eye size Z-score | eye size Z-score (female)
Clc1ccc(Cn2c(CN3CCCC3)nc3ccccc32)cc1 [Clemizole hydrochloride] | 0.32 | 
COc1cc2nc(N(C)CCCNC(=O)C3CCCO3)nc(N)c2cc1OC (stereo not drawn) [Alfuzosin hydrochloride] | 0.07 | 
CC(=O)Oc1ccccc1C(=O)O [Acetylsalicylic acid] | -0.37 | 
N=C(N)NS(=O)(=O)c1ccc(N)cc1 [Sulfaguanidine] | 1.44 | 
CC1=C(/C=C/C(C)=C/C=C/C(C)=C/C(=O)O)C(C)(C)CCC1 [Retinoic acid] | 0.12 | 
NC(=O)c1cc[n+](CC2=C(C(=O)[O-])N3C(=O)[C@@H](NC(=O)[C@@H](c4ccccc4)S(=O)(=O)O)[C@H]3SC2)cc1 [Cefsulodin sodium salt] | -0.19 | 
CCc1c(C)[nH]c2c1C(=O)C(CN1CCOCC1)CC2 (stereo not drawn) [Molindone hydrochloride] | 0.63 | 
CC1=C(C(=O)O)N2C(=O)[C@@H](NC(=O)[C@H](N)C3=CCC=CC3)[C@H]2SC1 [Cephradine monohydrate] | 0.21 | 
N[C@@H](CCC(=O)N[C@@H](CS)C(=O)NCC(=O)O)C(=O)O [Glutathione] | -0.52 | 
CCC1(c2ccccc2)NC(=O)N(C)C1=O (stereo not drawn) [Mephenytoin] | -1.17 | 
CC1(C)[C@H](C(=O)O)N2C(=O)C[C@H]2S1(=O)=O [Sulbactam] | -0.17 | 
Cc1ncc(CO)c(CO)c1O [Pyridoxine hydrochloride] | -0.13 | 
Cc1cc(C(C)(C)C)c(O)c(C)c1CC1=NCCN1 [Oxymetazoline hydrochloride] | 0.29 | 
CN(C)CCCN1c2ccccc2Sc2ccccc21 [Promazine hydrochloride] | 0.06 | 
NS(=O)(=O)c1cc(C(=O)O)cc(N2CCCC2)c1Oc1ccccc1 [Piretanide] | 0.4 | 
COc1ccc([C@@H]2CC(=O)c3c(O)cc(O[C@@H]4O[C@H](CO[C@@H]5O[C@@H](C)[C@H](O)[C@@H](O)[C@H]5O)[C@@H](O)[C@H](O)[C@H]4O)cc3O2)cc1O [Hesperidin] | 0.41 | 
CC(C)(C(=O)O)c1ccc(C(O)CCCN2CCC(C(O)(c3ccccc3)c3ccccc3)CC2)cc1 (stereo not drawn) [Fexofenadine hydrochloride] | -0.4 | 
Cc1c(C)c2c(c(C)c1O)CCC(C)(COc1ccc(CC3SC(=O)NC3=O)cc1)O2 (stereo not drawn) [Troglitazone] | -1.03 | 
COC(c1ccccc1)(c1ccccc1)[C@H](Oc1nc(C)cc(C)n1)C(=O)O [Ambrisentan] | 0.01 | 
COC(=O)C1=C(C)NC(C)=C(C(=O)OCCN2CCN(C(c3ccccc3)c3ccccc3)CC2)C1c1cccc([N+](=O)[O-])c1 (stereo not drawn) [Manidipine Dihydrochloride] | 0.46 | 
CC(=O)Nc1ccccc1 [Acetanilide] | -0.93 | 
CC(C(=O)O)c1ccc2c(c1)Cc1cccnc1O2 (stereo not drawn) [Pranoprofen] | 0.77 | 
COC(=O)Nc1nc2cc(C(=O)c3ccccc3)ccc2[nH]1 [Mebendazole] | -0.07 | 
CC(C)c1ccc2oc3nc(N)c(C(=O)O)cc3c(=O)c2c1 [Amlexanox] | 1.08 | 

Structure (SMILES) | eye size Z-score | eye size Z-score (female)
CC1(C)S[C@@H]2[C@H](NC(=O)[C@H](NC(=O)N3CCNC3=O)c3ccccc3)C(=O)N2[C@H]1C(=O)O [Azlocillin sodium salt] | 0.58 | 
Cc1cc2c(cc1S(N)(=O)=O)S(=O)(=O)CCC2 [Meticrane] | 0.82 | 
NCCNCCNCCNCCN [Tetraethylenepentamine pentahydrochloride] | 0.64 | 
Cc1onc(-c2c(Cl)cccc2Cl)c1C(=O)N[C@@H]1C(=O)N2[C@@H]1SC(C)(C)[C@@H]2C(=O)O [Dicloxacillin sodium salt hydrate] | 0.06 | 
CN(C)/N=N/c1[nH]cnc1C(N)=O [Dacarbazine] | -0.03 | 
CC[N+](C)(C)Cc1ccccc1Br [Bretylium tosylate] | -1.11 | 
C[N+](C)(C)CCCCCC[N+](C)(C)C [Hexamethonium dibromide dihydrate] |  | -0.57
CC1CC(OC(=O)C(O)c2ccccc2)CC(C)(C)C1 (stereo not drawn) [Cyclandelate] | -0.59 | 
O=C(O)c1cccnc1Nc1cccc(C(F)(F)F)c1 [Niflumic acid] | 0.04 | 
CCOC(=O)c1c(N)sc2c1CCN(Cc1ccccc1)C2 [Tinoridine hydrochloride] | 0.44 | 
Cc1oncc1C(=O)Nc1ccc(C(F)(F)F)cc1 [Leflunomide] | 0.05 | 
COc1ccc(C(Cl)=C(c2ccc(OC)cc2)c2ccc(OC)cc2)cc1 [Chlorotrianisene] | 0.71 | 
CCOC(=O)[C@H](CCc1ccccc1)N[C@@H](C)C(=O)N1Cc2ccccc2C[C@H]1C(=O)O [Quinapril hydrochloride] |  | 0.35
CC(CCc1ccccc1)NCC(O)c1ccc(O)c(C(N)=O)c1 (stereo not drawn) [Labetalol hydrochloride] | -1.89 | 
Fc1ccc(C(c2ccc(F)cc2)N2CCN(C/C=C/c3ccccc3)CC2)cc1 [Flunarizine dihydrochloride] | 0.39 | 
Cc1ccc(Nc2c(F)cccc2Cl)c(CC(=O)O)c1 [Lumiracoxib] | 0.14 | 
CC(C)(CO)[C@@H](O)C(=O)NCCCC(=O)O [Hopantenate calcium] | -0.16 | 
NC(N)=Nc1nc(CSCCN/C=N/S(=O)(=O)c2ccc(Br)cc2)cs1 [Ebrotidine] | 0.3 | 
CCCCC(=O)O[C@H]1CC[C@H]2[C@@H]3CCc4cc(O)ccc4[C@H]3CC[C@]12C [Estradiol Valerate] | -0.07 | 
N=C(N)c1ccc(OCCCCCOc2ccc(C(=N)N)cc2)cc1 [Pentamidine isethionate] | -0.48 | 
Cn1c(NCCN(CCO)CCCc2ccc([N+](=O)[O-])cc2)cc(=O)n(C)c1=O [Nifekalant] | -0.84 | 
OCCOCCN1CCN(C2=Nc3ccccc3Sc3ccccc32)CC1 [Quetiapine hemifumarate] | -0.1 | 
COc1cccc2c1C(=O)c1c(O)c3c(c(O)c1C2=O)C[C@@](O)(C(=O)CO)C[C@@H]3O[C@H]1C[C@H](N)[C@H](O)[C@H](C)O1 [Doxorubicin hydrochloride] | -0.33 | 
CCC(=O)O[C@@H](O[P@](=O)(CCCCc1ccccc1)CC(=O)N1C[C@H](C2CCCCC2)C[C@H]1C(=O)O)C(C)C [Fosinopril] | -0.17 | 

Rewritten in CSV form: 2 of the compounds above
Structure (SMILES),eye size Z-score,eye size Z-score (female)
CC[N+](C)(C)Cc1ccccc1Br [Bretylium tosylate],-1.11,
C[N+](C)(C)CCCCCC[N+](C)(C)C [Hexamethonium dibromide dihydrate],,-0.57
